In the supplement of paper PMC3741180, “A Novel High Throughput Biochemical Assay to Evaluate the HuR Protein-RNA Complex Formation” (PLoS ONE, 2013):
This is one part of the list. Single values are uncertain here, since repeats match poorly.

Chains of the proteins cited; added tags and fusions are not shown.
UniProt Q15717, whole entry: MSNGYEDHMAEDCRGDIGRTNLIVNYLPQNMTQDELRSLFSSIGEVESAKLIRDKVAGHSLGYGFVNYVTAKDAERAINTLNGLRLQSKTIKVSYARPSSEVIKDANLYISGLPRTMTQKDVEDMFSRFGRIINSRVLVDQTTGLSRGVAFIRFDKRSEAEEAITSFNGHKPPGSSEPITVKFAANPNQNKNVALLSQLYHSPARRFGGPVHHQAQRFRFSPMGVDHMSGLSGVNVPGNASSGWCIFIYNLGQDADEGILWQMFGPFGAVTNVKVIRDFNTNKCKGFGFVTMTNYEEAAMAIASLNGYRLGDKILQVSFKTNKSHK

Molecular target: HuR (ELAVL1) - TNFalpha ARE RNA complex (UniProt Q15717)
Experiment: AlphaScreen HuR-RNA complex signal Z-score relative to positive (Bi-TNF, DMSO) controls (Z-score (SD units of positive control)); higher = more complex signal
Settings: screen stage: primary screen; compound concentration: 25 nM

| SMILES | AlphaScreen HuR-RNA complex signal Z-score |
| --- | --- |
| O=C(/C=C/c1ccc(O)c(O)c1)OCCc1ccccc1 | 2.58 |
| NCC(O)CC(=O)O (stereo not given) | 3.34 |
| COc1c2occc2c(OC)c2c(=O)cc(C)oc12 | 1.46 |
| C1CNCCN1 | 0.509 |
| Nc1cc(C(Cl)=C(Cl)Cl)c(S(N)(=O)=O)cc1S(N)(=O)=O | -8.09 |
| CC(=O)O[C@H]1CC[C@@]2(C)[C@@H](CC[C@@H]3[C@@H]2CC(=O)[C@]2(C)[C@@H]4[C@H](C[C@@H]32)O[C@]2(CC[C@@H](C)CO2)[C@H]4C)C1 | 1.78 |
| O=c1oc2ccccc2c(O)c1Cc1c(O)c2ccccc2oc1=O | -2.61 |
| COC(=O)/C=C/C(C)=C\C=C\C(C)=C\C=C\C=C(C)\C=C\C=C(C)\C=C\C(=O)O | 0.962 |
| CN1CCN(CCCN2c3ccccc3Sc3ccc(Cl)cc32)CC1 | 2.6 |
| O=C1c2ccccc2C(=O)c2c1ccc(O)c2O | 1.77 |
| CC(=O)Oc1cc(OC(C)=O)c2c(c1)O[C@H](c1ccc(OC(C)=O)c(OC(C)=O)c1)[C@H](OC(C)=O)C2 | 0.105 |
| COc1cc(-c2coc3cc(O[C@@H]4O[C@H](CO)[C@@H](O)[C@H](O)[C@H]4O)c(OC)c(O)c3c2=O)cc(O)c1OC | 2.24 |
| O=c1c(O)c(-c2ccccc2)oc2cc(O)ccc12 | 1.17 |
| O=c1c(O)c(-c2ccc(O)cc2O)oc2cc(O)cc(O)c12 | 0.296 |
| O=C1OCCN1/N=C/c1ccc([N+](=O)[O-])o1 | -2.15 |
| NC(=O)c1ccc([N+](=O)[O-])cc1Cl | 0.745 |
| O=C(/C=C/C(=O)Oc1ccccc1C(=O)O)Oc1ccccc1C(=O)O | 3.89 |
| Cc1c(O)c(=O)ccn1C | 0.985 |
| c1ccc([C@H]2CN3CCSC3=N2)cc1 | 1.47 |
| CCC(=O)O[C@]1(C(=O)CCl)[C@@H](C)C[C@H]2[C@@H]3CCC4=CC(=O)C=C[C@]4(C)[C@@]3(F)[C@@H](O)C[C@@]21C | 1.06 |
| O=C1C[C@@H](c2ccc(O)cc2)Oc2cc(O)cc(O)c21 | 0.644 |
| CC(=O)N[C@@H](Cc1c[nH]c2ccccc12)C(N)=O | -0.112 |

| SMILES | AlphaScreen HuR-RNA complex signal Z-score |
| --- | --- |
| CC(C)NCC(O)c1ccc2ccccc2c1 (stereo not given) | 3.78 |
| CC(=O)O[C@]1(C(C)=O)CC[C@H]2[C@@H]3C[C@H](C)C4=CC(=O)CC[C@]4(C)[C@H]3CC[C@@]21C | 3.31 |
| CC(=O)Oc1ccc2c(c1)CCC1C2CC[C@]2(C)C(=O)CCC12 (stereo not given in full) | -0.663 |
| CN(C)c1nc(N(C)C)nc(N(C)C)n1 | 0.934 |
| NC(=O)C(c1ccccc1)(c1ccccc1)[C@@H]1CCN(CCc2ccc3c(c2)CCO3)C1 | -1.3 |
| CCCNCC(O)COc1ccccc1C(=O)CCc1ccccc1 (stereo not given) | 1.04 |
| O=C(Nc1ccccc1)Nc1ccccc1 | 1.74 |
| O=[N+]([O-])c1cccc2cn[nH]c12 | 2.7 |
| COc1ccccc1OCC(O)CN1CCN(CC(=O)Nc2c(C)cccc2C)CC1 (stereo not given) | -1.2 |
| COc1cc([C@@H]2c3cc4c(cc3[C@@H](O[C@@H]3O[C@@H]5CO[C@@H](C)O[C@H]5[C@H](O)[C@H]3O)[C@H]3COC(=O)[C@H]23)OCO4)cc(OC)c1O | 0.748 |
| C[C@H]1C[C@@H]2[C@H]([C@@H](O)C[C@@]3(C)[C@H]2CC[C@]3(O)C(=O)CO)[C@@]2(C)C=CC(=O)C=C12 | 4.35 |
| CS(=O)(=O)CCCCN=C=S | 2.77 |
| O=C1CC2(CCCC2)CC(=O)N1CCCCN1CCN(c2ncccn2)CC1 | 6.8 |
| CC[C@H]1OC(=O)[C@H](C)[C@@H](O[C@H]2C[C@@](C)(OC)[C@@H](O)[C@H](C)O2)[C@H](C)[C@@H](O[C@@H]2O[C@H](C)C[C@H](N(C)C)[C@H]2O)[C@](C)(O)C[C@@H](C)[C@@H]2N[C@@H](COCCOC)O[C@H]([C@H]2C)[C@]1(C)O | 1.06 |
| CC(C)/C(O)=C1/C(=O)O[C@@H](c2ccoc2)[C@]2(C)C(O)[C@@H](O)[C@@]34OC5(C)OC67CC(C)(C(O)[C@]6(O)[C@@H](O)[C@]3(O5)C12)[C@H](CC(=O)O)[C@]74C (stereo not given in full) | 1.8 |
| CC1(C)CC[C@]2(C(=O)O)CC[C@]3(C)C(=CC[C@@H]4[C@@]5(C)CC[C@H](O)[C@@](C)(CO)[C@@H]5CC[C@]43C)[C@@H]2C1 | 1.34 |
| O=c1cc[nH]c(=S)[nH]1 | 0.946 |
| CCC(C(=O)O)c1ccccc1 (stereo not given) | 0.804 |
| CCC(=O)c1c(O)cc(O)cc1O | 2.02 |
| CC1Cc2ccccc2N1NC(=O)c1ccc(Cl)c(S(N)(=O)=O)c1 (stereo not given) | -0.64 |
| CC(=O)O[C@@H]1CC2C(C)(C)C(=O)C3OC3[C@]2(C)C2CC[C@@]3(C)[C@H](c4ccoc4)OC(=O)C4OC43[C@@]21C (stereo not given in full) | 1.14 |
| CO/N=C(\C(=O)N[C@@H]1C(=O)N2C(C(=O)O)=C(COC(N)=O)CS[C@H]12)c1ccco1 | 0.48 |

| SMILES | AlphaScreen HuR-RNA complex signal Z-score |
| --- | --- |
| Nc1ccc(S(=O)(=O)Nc2ccnn2-c2ccccc2)cc1 | 1.42 |
| COc1c(O)cccc1O | 1.47 |
| COC(=O)CC[C@@H](C)[C@H]1CC[C@H]2[C@@H]3[C@H](O)C[C@@H]4C[C@H](O)CC[C@]4(C)[C@H]3C[C@H](O)[C@]12C | 1.76 |
| CCCCCCCCCCCCCCCC(=O)O[C@@H]1[C@@H](O)[C@@H](O)[C@@H]([C@H](NC(=O)[C@@H]2C[C@@H](CCC)CN2C)[C@H](C)Cl)O[C@@H]1SC | 2.2 |
| Cc1cc(CC(=O)O)n(C)c1C(=O)c1ccc(Cl)cc1 | -0.657 |
| O=C(O)C1=CCCNC1 | 1.68 |
| CC12CCC(CC1)C(C)(C)O2 | 2 |
| CC(C)C[C@@H]1NC(=O)[C@H](CCCN)NC(=O)[C@H](C(C)C)NC(=O)[C@H](Cc2ccc(O)cc2)N[C@@H](CCC(=O)O)C(=O)N[C@@H](CC(N)=O)C(=O)[C@@H](Cc2ccccc2)NC(=O)[C@H](Cc2ccccc2)NC(=O)[C@@H]2CCCN2C(=O)[C@@H](Cc2ccccc2)NC1=O | -1.39 |
| C[C@H](CCC(=O)O)[C@H]1CC[C@H]2[C@@H]3CC[C@@H]4C[C@H](O)CC[C@]4(C)[C@H]3C[C@H](O)[C@]12C | 1.9 |
| COc1ccc2cc(C(C)C(=O)O)ccc2c1 (stereo not given) | 3.26 |
| CN(C)C(=O)Nc1ccc(Cl)c(Cl)c1 | 2.14 |
| O=C(O)CCCc1ccccc1 | 1.6 |
| NC1=NCCN1CC(=O)O | 2.05 |
| CC1(C)O[C@@H]2C[C@H]3[C@@H]4CCC5=CC(=O)C=C[C@]5(C)[C@@]4(F)[C@@H](O)C[C@]3(C)[C@]2(C(=O)CO)O1 | -1.04 |
| C[C@@H]1C[C@H]2[C@@H]3CCC4=CC(=O)C=C[C@]4(C)[C@@]3(F)[C@@H](O)C[C@]2(C)[C@@]1(O)C(=O)CO | -3.99 |
| OC1(c2ccc(Cl)c(C(F)(F)F)c2)CCN(CCCC(c2ccc(F)cc2)c2ccc(F)cc2)CC1 | 0.316 |
| CC1(O)CC2C(CC1O)C2(C)C (stereo not given) | 1.79 |
| Cc1nnc(NS(=O)(=O)c2ccc(N)cc2)s1 | 6.83 |
| COc1cc(NS(C)(=O)=O)ccc1Nc1c2ccccc2nc2ccccc12 | 1.55 |
| CCN1CCN(c2cc3c(cc2F)c(=O)c(C(=O)O)cn3C2CC2)CC1 | 0.895 |
| C1CCN2C[C@@H]3C[C@@H](CN4CCCC[C@@H]34)[C@H]2C1 | 0.312 |
| CC1CC(OC(=O)C(O)c2ccccc2)CC(C)(C)N1C (stereo not given) | 3.4 |

Filtered by structure: the compounds so far containing two or more sulfur atoms (three)

| SMILES | AlphaScreen HuR-RNA complex signal Z-score |
| --- | --- |
| Nc1cc(C(Cl)=C(Cl)Cl)c(S(N)(=O)=O)cc1S(N)(=O)=O | -8.09 |
| CS(=O)(=O)CCCCN=C=S | 2.77 |
| Cc1nnc(NS(=O)(=O)c2ccc(N)cc2)s1 | 6.83 |

3 records drawn at random from those above, as already listed:

| SMILES | AlphaScreen HuR-RNA complex signal Z-score |
| --- | --- |
| C[C@@H]1C[C@H]2[C@@H]3CCC4=CC(=O)C=C[C@]4(C)[C@@]3(F)[C@@H](O)C[C@]2(C)[C@@]1(O)C(=O)CO | -3.99 |
| Cc1nnc(NS(=O)(=O)c2ccc(N)cc2)s1 | 6.83 |
| Cc1cc(CC(=O)O)n(C)c1C(=O)c1ccc(Cl)cc1 | -0.657 |

Following part.

| SMILES | AlphaScreen HuR-RNA complex signal Z-score |
| --- | --- |
| OC[C@H]1O[C@@H](n2cnc3c(NCc4ccco4)ncnc32)[C@H](O)[C@@H]1O | 2.38 |
| Cc1ccc(Cl)c(Nc2ccccc2C(=O)O)c1Cl | 1.18 |
| CCN1CCN(C(=O)N[C@@H](C(=O)N[C@@H]2C(=O)N3C(C(=O)O)=C(CSc4nnnn4C)CS[C@H]23)c2ccc(O)cc2)C(=O)C1=O | 0.263 |
| CN(C)CCOc1ccc(/C(=C(/CCCl)c2ccccc2)c2ccccc2)cc1 | -1.09 |
| CC(C(=O)O)c1ccc(N2Cc3ccccc3C2=O)cc1 (stereo not given) | 0.211 |
| CO[C@@]12[C@H](COC(N)=O)C3=C(C(=O)C(C)=C(N)C3=O)N1C[C@@H]1N[C@@H]12 | 0.315 |
| C[C@H]1C[C@H]2[C@@H]3CCC4=CC(=O)C=C[C@]4(C)[C@@]3(F)[C@@H](O)C[C@]2(C)[C@@]1(O)C(=O)CO | 0.312 |
| CC(C)C1=CC2=CC[C@@H]3[C@](C)(CCC[C@@]3(C)C(=O)O)[C@H]2CC1 | -0.411 |
| O=C(O[C@@H]1Cc2c(O)cc(O)cc2O[C@@H]1c1cc(O)c(=O)c2c(O)c(O)cc([C@H]3Oc4cc(O)cc(O)c4C[C@H]3O)c2c1)c1cc(O)c(O)c(O)c1 | 1.22 |
| COC(=O)CC[C@@H](C)[C@H]1CC[C@H]2[C@@H]3CC[C@@H]4C[C@H](O)CC[C@]4(C)[C@H]3C[C@H](O)[C@]12C | -0.99 |
| C[C@@H]1O[C@@H](O[C@H]2[C@H](O[C@H]3CC[C@@]4(C)[C@@H](CC[C@]5(C)[C@@H]4CC=C4[C@@H]6CC(C)(C)CC[C@]6(C(=O)O[C@@H]6O[C@H](CO[C@@H]7O[C@H](CO)[C@@H](O[C@@H]8O[C@@H](C)[C@H](O)[C@@H](O)[C@H]8O)[C@H](O)[C@H]7O)[C@@H](O)[C@H](O)[C@H]6O)CC[C@]45C)[C@]3(C)CO)OC[C@H](O)[C@@H]2O)[C@H](O)[C@H](O)[C@H]1O | -0.0701 |
| C[C@H]1CC2C3CCC4=CC(=O)C=C[C@]4(C)[C@@]3(F)[C@@H](O)C[C@]2(C)[C@@]1(O)C(=O)COP(=O)(O)O (stereo not given in full) | 2.01 |
| CCOC(=O)CCCCCCCCCCCCC1C=CCC1 (stereo not given) | 3.89 |
| O=c1c(-c2ccc(O)cc2)coc2c([C@@H]3O[C@H](CO)[C@@H](O)[C@H](O)[C@H]3O)c(O)ccc12 | 1.63 |
| O=C(O)C(S)C(S)C(=O)O (stereo not given) | 1.86 |
| CCn1nc(C(=O)O)c(=O)c2cc3c(cc21)OCO3 | -2.46 |
| Cc1cc(/C=C/c2ccc3cc(N(C)C)ccc3[n+]2C)c(C)n1-c1ccccc1 | 4.86 |
| CC(C)=CCC/C(C)=C/CC/C(C)=C/CC/C(C)=C/CC/C(C)=C/CC/C(C)=C/CC/C(C)=C/CC/C(C)=C/CC/C(C)=C/CO | 1.14 |
| OC[C@H]1O[C@H]([S-])[C@H](O)[C@@H](O)[C@@H]1O.[Au+] | 0.312 |
